# Results from US20100158865A1.
# Amino acid sequences for entries named in this document (tags omitted). Residues count along the entry.
# UniProt P01579, residues 24-161: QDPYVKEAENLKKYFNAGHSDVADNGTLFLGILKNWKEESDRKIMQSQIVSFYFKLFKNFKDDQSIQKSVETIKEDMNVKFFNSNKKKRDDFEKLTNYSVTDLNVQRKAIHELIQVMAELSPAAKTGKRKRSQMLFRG
# These are yes or no findings as the source states them, for the method shown. Some entries that bind do so weakly or less than the wild type.
# Legend:
# [1] = biological target: T1, hIFN-γ receptor (human) (UniProt P15260); experiment: biological tests, competition with hIFN-γ
# T1 sequence (looked up): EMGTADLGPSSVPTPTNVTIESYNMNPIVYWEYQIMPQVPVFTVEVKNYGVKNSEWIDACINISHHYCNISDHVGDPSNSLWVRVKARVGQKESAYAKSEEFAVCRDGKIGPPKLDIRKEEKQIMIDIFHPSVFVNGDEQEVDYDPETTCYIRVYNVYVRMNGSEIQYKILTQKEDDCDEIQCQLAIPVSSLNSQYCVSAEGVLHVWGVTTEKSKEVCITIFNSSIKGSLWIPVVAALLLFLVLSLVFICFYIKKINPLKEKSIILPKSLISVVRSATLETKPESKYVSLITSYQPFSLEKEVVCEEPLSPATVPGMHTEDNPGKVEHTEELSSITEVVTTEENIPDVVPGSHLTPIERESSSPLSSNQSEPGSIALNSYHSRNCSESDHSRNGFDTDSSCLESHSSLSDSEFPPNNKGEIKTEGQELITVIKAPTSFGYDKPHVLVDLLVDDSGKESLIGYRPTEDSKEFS
# [2] = biological target: T1, hIFN-γ receptor (human); experiment: competition with intact hIFN-γ on WISH cells, antiviral read-out
Substance,binding [1],binding [2]
truncated human hIFN-γ protein composed of 116 aminoacid residues (from UniProt P01579 24-139) (ligand),binds,binds
hIFN-γ inactivated by irradiation with UV light (photoinactivated hIFN-γ) (from UniProt P01579 24-161) (ligand),binds,binds
